Values quoted from earlier work, collected in patent publication US20220235073A1, “ARTEMISININ-DERIVATIVE N-HETEROCYCLIC CARBENE GOLD(I) HYBRID COMPLEXES” (CENTRE NATIONAL DE LA RECHERCHE SCIENTIFIQUE, priority 2019, published 2022).

Tested on: HepG-2 cell line
Conditions: literature value (BMC Cancer 2012, 12, 402); cited from earlier work

## CNC(=O)c1cc(Oc2ccc(NC(=O)Nc3ccc(Cl)c(C(F)(F)F)c3)cc2)ccn1 [Sorafenib]
  IC50: 6.4 µM
